From paper PMC2848608
These are yes or no findings as the source states them, for the method shown. In cells and extracts the contact can be indirect. Some results given as binding are weak or reduced against the parent protein; the word gives no strength.

The chains behind the UniProt entries cited, without tags or fusion partners.
UniProt P61073: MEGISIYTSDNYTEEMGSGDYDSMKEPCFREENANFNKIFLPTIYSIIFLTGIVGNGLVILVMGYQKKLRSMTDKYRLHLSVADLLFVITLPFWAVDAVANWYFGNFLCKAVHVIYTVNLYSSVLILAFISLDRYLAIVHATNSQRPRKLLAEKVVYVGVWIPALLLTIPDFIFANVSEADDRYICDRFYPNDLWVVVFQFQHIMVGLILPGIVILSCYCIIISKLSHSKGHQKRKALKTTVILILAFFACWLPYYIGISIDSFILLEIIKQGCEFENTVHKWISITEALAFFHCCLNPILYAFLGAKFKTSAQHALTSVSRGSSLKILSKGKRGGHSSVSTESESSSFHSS

Molecular target: CXCR4 (human) (human (endogenous in human tumor cells)) (UniProt P61073)
Assay: pull-down; unpublished observation (Southgate et al unpublished); pulldown and reciprocal western analyses in non-ionic detergent solubilized lysates of human tumor cells

binding: binds
B1: 5T4 oncofetal glycoprotein (human) (protein, UniProt Q13641 32-420)
chain: SSPTSSASSFSSSAPFLASAVSAQPPLPDQCPALCECSEAARTVKCVNRNLTEVPTDLPAYVRNLFLTGNQLAVLPAGAFARRPPLAELAALNLSGSRLDEVRAGAFEHLPSLRQLDLSHNPLADLSPFAFSGSNASVSAPSPLVELILNHIVPPEDERQNRSFEGMVVAALLAGRALQGLRRLELASNHFLYLPRDVLAQLPSLRHLDLSNNSLVSLTYVSFRNLTHLESLHLEDNALKVLHNGTLAELQGLPHIRVFLDNNPWVCDCHMADMVTWLKETEVVQGKDRLTCAYPEKMRNRVLLELNSADLDCDPILPPSLQTSYVFLGIVLALIGAIFLLVLYLNRKGIKKWMHNIRDACRDHMEGYHYRYEINADPRLTNLSSNSDV
